Results are given in words; binding and its absence hold for the method and conditions named. Binding seen in cells or lysates may run through a third protein. A result given as binding can be weak or reduced; the word gives no strength.

The assay deals with EVA71 3D viral polymerase (enterovirus A71 (strain 4643/TW/98)). Description: co-IP; lysates of EVA71-infected (MOI 10, 6 h) or mock-infected RD cells; IP with anti-3D or anti-UGGT1 antibody (mouse or rabbit IgG as control), Western blot; also with RNase A treatment of the lysate before the IP. On the technique in general: A western blot detects proteins with antibodies after separation by electrophoresis.

B1: Interleukin enhancer binding factor 3 (protein, UniProt Q12906 1-894)
chain: MRPMRIFVNDDRHVMAKHSSVYPTQEELEAVQNMVSHTERALKAVSDWIDEQEKGSSEQAESDNMDVPPEDDSKEGAGEQKTEHMTRTLRGVMRVGLVAKGLLLKGDLDLELVLLCKEKPTTALLDKVADNLAIQLAAVTEDKYEILQSVDDAAIVIKNTKEPPLSLTIHLTSPVVREEMEKVLAGETLSVNDPPDVLDRQKCLAALASLRHAKWFQARANGLKSCVIVIRVLRDLCTRVPTWGPLRGWPLELLCEKSIGTANRPMGAGEALRRVLECLASGIVMPDGSGIYDPCEKEATDAIGHLDRQQREDITQSAQHALRLAAFGQLHKVLGMDPLPSKMPKKPKNENPVDYTVQIPPSTTYAITPMKRPMEEDGEEKSPSKKKKKIQKKEEKAEPPQAMNALMRLNQLKPGLQYKLVSQTGPVHAPIFTMSVEVDGNSFEASGPSKKTAKLHVAVKVLQDMGLPTGAEGRDSSKGEDSAEETEAKPAVVAPAPVVEAVSTPSAAFPSDATAEQGPILTKHGKNPVMELNEKRRGLKYELISETGGSHDKRFVMEVEVDGQKFQGAGSNKKVAKAYAALAALEKLFPDTPLALDANKKKRAPVPVRGGPKFAAKPHNPGFGMGGPMHNEVPPPPNLRGRGRGGSIRGRGRGRGFGGANHGGYMNAGAGYGSYGYGGNSATAGYSQFYSNGGHSGNASGGGGGGGGGSSGYGSYYQGDNYNSPVPPKHAGKKQPHGGQQKPSYGSGYQSHQGQQQSYNQSPYSNYGPPQGKQKGYNHGQGSYSYSNSYNSPGGGGGSDYNYESKFNYSGSGGRSGGNSYGSGGASYNPGSHGGYGGGSGGGSSYQGKQGGYSQSNYNSPGSGQNYSGPPSSYQSSQGGYGRNADHSMNYQYR
In the case of B1, the binding result was “binds”.

The values above are taken from PMC5435352.
